Data as given in PubChem BioAssay AID504804 (Drosophila RNAi Screening Center, 2011).
In all, the deposit lists about 19,000 reagents; shown is an unselected part of those with a known target gene and a result. Of all reagents, 47 (0.25%) got an active call. 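Signals are raw, not normalised; exact z-scores behind calls not deposited; actives needed confirmation, so some wells reaching 2 SD are inactive.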 Reagents against one gene are numbered here.

- Assay: 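Fly genes whose loss lessens doxorubicin-driven cell death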 (primary screen)
- Cell system: Drosophila Kc cells
- Reagents: long dsRNA against Drosophila genes, 0.5 µg dsRNA per well
- Time to read-out: 96 h (48 h knock-down, then 48 h drug)
- Challenge: doxorubicin 5 µg/ml for 48 h, added 48 h after dsRNA
- Measured: 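Luminescent ATP counts per replicate, not normalised, reflecting viable cells after 48 h dsRNA knock-down followed by 48 h of 5 µg/ml doxorubicin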
- Scale: raw ATP luminescence: higher = more viable cells, protection from doxorubicin
- Call rule: 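z-score of 2 or more over plate mean in both duplicates, retained only when retests and separate dsRNAs confirm the protection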

pHCl-1 #1 → raw ATP luminescence, replicate 1: 84433; raw ATP luminescence, replicate 2: 76403; outcome: inactive
pHCl-1 #2 → raw ATP luminescence, replicate 1: 49557; raw ATP luminescence, replicate 2: 36733; outcome: inactive
pHCl-1 #3 → raw ATP luminescence, replicate 1: 53893; raw ATP luminescence, replicate 2: 43503; outcome: inactive
dib → raw ATP luminescence, replicate 1: 42857; raw ATP luminescence, replicate 2: 45830; outcome: inactive
Nagk → raw ATP luminescence, replicate 1: 37843; raw ATP luminescence, replicate 2: 22513; outcome: inactive
CG9119 → raw ATP luminescence, replicate 1: 67870; raw ATP luminescence, replicate 2: 62377; outcome: inactive
UQCR-C1 → raw ATP luminescence, replicate 1: 46183; raw ATP luminescence, replicate 2: 26427; outcome: inactive
CG4455 → raw ATP luminescence, replicate 1: 88023; raw ATP luminescence, replicate 2: 67517; outcome: inactive
baf → raw ATP luminescence, replicate 1: 42620; raw ATP luminescence, replicate 2: 76870; outcome: inactive
esg → raw ATP luminescence, replicate 1: 73343; raw ATP luminescence, replicate 2: 61527; outcome: inactive
CG18095 → raw ATP luminescence, replicate 1: 66263; raw ATP luminescence, replicate 2: 72400; outcome: inactive
Rheb → raw ATP luminescence, replicate 1: 56713; raw ATP luminescence, replicate 2: 25957; outcome: inactive
Nepl20 → raw ATP luminescence, replicate 1: 55970; raw ATP luminescence, replicate 2: 33470; outcome: inactive
Myt1 → raw ATP luminescence, replicate 1: 73787; raw ATP luminescence, replicate 2: 91153; outcome: inactive
Xrcc2 → raw ATP luminescence, replicate 1: 2.59e5; raw ATP luminescence, replicate 2: 2.85e5; outcome: inactive
Ssb-c31a → raw ATP luminescence, replicate 1: 36927; raw ATP luminescence, replicate 2: 77620; outcome: inactive
Srp68 → raw ATP luminescence, replicate 1: 46367; raw ATP luminescence, replicate 2: 38993; outcome: inactive
CG32409 → raw ATP luminescence, replicate 1: 1.18e5; raw ATP luminescence, replicate 2: 1.26e5; outcome: inactive
Zasp67 → raw ATP luminescence, replicate 1: 62810; raw ATP luminescence, replicate 2: 71817; outcome: inactive
CG2736 → raw ATP luminescence, replicate 1: 65387; raw ATP luminescence, replicate 2: 83927; outcome: inactive
CG5757 → raw ATP luminescence, replicate 1: 56927; raw ATP luminescence, replicate 2: 42603; outcome: inactive
ITP → raw ATP luminescence, replicate 1: 53577; raw ATP luminescence, replicate 2: 40363; outcome: inactive
Mob2 #1 → raw ATP luminescence, replicate 1: 45163; raw ATP luminescence, replicate 2: 59457; outcome: inactive
Mob2 #2 → raw ATP luminescence, replicate 1: 1.66e5; raw ATP luminescence, replicate 2: 1.62e5; outcome: inactive
Mob2 #3 → raw ATP luminescence, replicate 1: 29183; raw ATP luminescence, replicate 2: 36107; outcome: inactive
lilli → raw ATP luminescence, replicate 1: 1.48e5; raw ATP luminescence, replicate 2: 93680; outcome: inactive
Fbp2 → raw ATP luminescence, replicate 1: 86880; raw ATP luminescence, replicate 2: 55430; outcome: inactive
CG18518 → raw ATP luminescence, replicate 1: 2.91e5; raw ATP luminescence, replicate 2: 1.90e5; outcome: inactive

4 entries from above, sorted by “raw ATP luminescence, replicate 1”, highest first.
Mob2 #2 → raw ATP luminescence, replicate 1: 1.66e5; raw ATP luminescence, replicate 2: 1.62e5; outcome: inactive
lilli → raw ATP luminescence, replicate 1: 1.48e5; raw ATP luminescence, replicate 2: 93680; outcome: inactive
Mob2 #1 → raw ATP luminescence, replicate 1: 45163; raw ATP luminescence, replicate 2: 59457; outcome: inactive
Mob2 #3 → raw ATP luminescence, replicate 1: 29183; raw ATP luminescence, replicate 2: 36107; outcome: inactive
